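Malaria parasite (P. falciparum) lines kept in red blood cells; parasite DNA is measured by SYBR Green fluorescence after lysis, 72 h after compound addition. Each compound was titrated across a series from about 0.000037 to 29 µM. The number is the fitted AC50, the concentration giving a half-maximal change in signal; a lower value means higher potency, whether the curve shows a decrease or an increase. Calls follow the curve class and fit quality: every row here is inconclusive, covering signal-raising curves and weak, poorly fitted, partial or highest-dose-only inhibition curves.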

Values are in µM. Every entry below has the call inconclusive. Only part of the assay is shown, chiefly results filed as inconclusive. Potencies fitted to partial, single-point or poorly fitting curves are rough. The first word of each remark tells which way the curve ran; it can be opposite to the aim of the assay.

* CN(C)CCCN1c2ccccc2C(C)(C)c2ccccc21 [CP194] | fitted potency 4.776 µM (inhibitor, partial curve)
* CN(C)CCCN1c2ccccc2C(C)(C)c2ccccc21 [TAB165] | fitted potency 11.22 µM (inhibitor, partial curve, poor fit)
* CN(C)CCCN1c2ccccc2C(C)(C)c2ccccc21 [CP291] | fitted potency 6.012 µM (inhibitor, partial curve)
* CN1CCN(C2=Nc3ccccc3Sc3ccc(Cl)cc32)CC1 [CP194] | fitted potency 8.492 µM (inhibitor, partial curve, poor fit)
* CN1CCN(C2=Nc3ccccc3Sc3ccc(Cl)cc32)CC1 [Dd2] | fitted potency 7.08 µM (inhibitor, partial curve)
* CN1CCN(C2=Nc3ccccc3Sc3ccc(Cl)cc32)CC1 [CP335] | fitted potency 12 µM (inhibitor, single point)
* CN1CCN(C2=Nc3ccccc3Sc3ccc(Cl)cc32)CC1 [CP269] | fitted potency 10.69 µM (inhibitor, partial curve, poor fit)
* CN1CCN(C2=Nc3ccccc3Sc3ccc(Cl)cc32)CC1 [P94_40] | fitted potency 11.22 µM (inhibitor, single point)
* CN1CCN(C2=Nc3ccccc3Sc3ccc(Cl)cc32)CC1 [CP265] | fitted potency 10 µM (inhibitor, single point)
* CN1CCN(C2=Nc3ccccc3Sc3ccc(Cl)cc32)CC1 [CP297] | fitted potency 6.012 µM (inhibitor, partial curve)
* CN1CCN(C2=Nc3ccccc3Sc3ccc(Cl)cc32)CC1 [N140] | fitted potency 11.22 µM (inhibitor, single point)
* CN1CCN(C2=Nc3ccccc3Sc3ccc(Cl)cc32)CC1 [DIV14] | fitted potency 15.1 µM (inhibitor, partial curve)
* CN1CCN(C2=Nc3ccccc3Sc3ccc(Cl)cc32)CC1 [PAD] | fitted potency 11.22 µM (inhibitor, single point)
* CCc1ccc2c(c1)N(C[C@H](C)CN(C)C)c1ccccc1S2 [P94_40] | fitted potency 10 µM (inhibitor, single point)
* CCc1ccc2c(c1)N(C[C@H](C)CN(C)C)c1ccccc1S2 [PC49] | fitted potency 11.22 µM (inhibitor, single point)
* CCc1ccc2c(c1)N(C[C@H](C)CN(C)C)c1ccccc1S2 [TAB165] | fitted potency 8.912 µM (inhibitor, partial curve, poor fit)
* CCc1ccc2c(c1)N(C[C@H](C)CN(C)C)c1ccccc1S2 [JCK] | fitted potency 17.78 µM (inhibitor, single point)
* CCc1ccc2c(c1)N(C[C@H](C)CN(C)C)c1ccccc1S2 [TAB113] | fitted potency 10 µM (inhibitor, single point)
* CCc1ccc2c(c1)N(C[C@H](C)CN(C)C)c1ccccc1S2 [PC26] | fitted potency 8.492 µM (inhibitor, partial curve)
* CCc1ccc2c(c1)N(C[C@H](C)CN(C)C)c1ccccc1S2 [TAB109] | fitted potency 8.912 µM (inhibitor, single point)
* Cc1c(C)n(Cc2ccccc2)c2ccc(C(=O)OCCN(C)C)cc12 [7G8] | fitted potency 10 µM (inhibitor, single point)
* Cc1c(C)n(Cc2ccccc2)c2ccc(C(=O)OCCN(C)C)cc12 [CP266] | fitted potency 19.01 µM (activator, single point)
* Cc1c(C)n(Cc2ccccc2)c2ccc(C(=O)OCCN(C)C)cc12 [CP201] | fitted potency 1.694 µM (activator, single point)

Repeated from the top, 3 entries:

CN(C)CCCN1c2ccccc2C(C)(C)c2ccccc21 [CP194] gave fitted potency 4.776 µM (inhibitor, partial curve).
CN(C)CCCN1c2ccccc2C(C)(C)c2ccccc21 [TAB165] gave fitted potency 11.22 µM (inhibitor, partial curve, poor fit).
CN(C)CCCN1c2ccccc2C(C)(C)c2ccccc21 [CP291] gave fitted potency 6.012 µM (inhibitor, partial curve).

The results are deposited in PubChem (AID504749; NCATS, 2011).